Results are given in words; binding and its absence hold for the method and conditions named. Binding can be weak; no strength is given.
B1: BG87P-34 (antibody, V domains shown)
VH: EVQLQESGGGLVQPGGSLRLSCAASGYSFSDYHINWVRQAPGKGLEWVGYIYPGSGHTKYNEKFKGRFTISRDTSSNTAYLQMNSLRAEDTAVYYCARSGIYHYVSSYYFDHWGQGTLVTVSS
VL: DIQMTQSPSSLSASVGDRVTITCKASQDAGSAVAWYQQKPGKAPKLLIYWASTRHTGVPSRFSGSGSGTDFTLTISSLQPEDFATYYCQQYSSYTFGGGTKLEIK
notes: Final lead clone, framework IGHV3-23 and IGKV1-39; also called BG87-34
B2: BG87P (mouse anti-CLDN6 antibody, hybridoma clone) (antibody, V domains shown)
VH: QIQLQQSGPELVKPGASVKISCKASGYSFTDYHINWVKQRPGQGLEWIGWIYPGSGYTKYNEKFKVKATLTVDTSSSTAYMHLTSLTSEDSAVYFCARSGIYHYVSSYYFDHWGQGTTLTVSS
VL: DIVMTQSHTFMSTSVGDRVSITCKASQDVGTAVAWYQQKPGQSPKLLIYWASTRHTGVPDRFTGSGSGTDFTLTISNVQSEDLADYFCQQYSSYTFGGGTKLEIK

Assays:
cyno CLDN6 (cyno) [1] = assay: flow cytometry, CHOK1-cyno CLDN6 cells
cyno CLDN6 (cyno) [2] = assay: flow cytometry

Binder	binding (cyno CLDN6 (cyno) [1])	binding (cyno CLDN6 (cyno) [2])
B1	binds	
B2		binds

Source: patent US20240301051A1 (BEIGENE SWITZERLAND, published 2024)
